These are yes or no findings as the source states them, for the method shown. Binding seen in cells or lysates may run through a third protein. A yes stands for co-enrichment or nearness to the bait. Other partners may have been found.

By UniProt entry, the sequences of proteins in these tests, tags left out. Where a name states a change or a piece, a line headed by the entry shows the natural chain unless it says otherwise.
UniProt P0DTC4: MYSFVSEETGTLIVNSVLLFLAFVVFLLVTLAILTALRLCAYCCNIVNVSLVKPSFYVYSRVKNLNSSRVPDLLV
UniProt Q8TAA3: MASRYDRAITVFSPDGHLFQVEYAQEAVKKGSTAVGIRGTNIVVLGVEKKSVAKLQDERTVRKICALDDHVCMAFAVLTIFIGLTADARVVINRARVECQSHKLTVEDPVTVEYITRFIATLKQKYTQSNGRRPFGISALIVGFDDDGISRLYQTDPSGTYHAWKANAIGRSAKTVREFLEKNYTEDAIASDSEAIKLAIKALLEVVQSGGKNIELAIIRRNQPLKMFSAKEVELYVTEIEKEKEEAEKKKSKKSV
UniProt P20618: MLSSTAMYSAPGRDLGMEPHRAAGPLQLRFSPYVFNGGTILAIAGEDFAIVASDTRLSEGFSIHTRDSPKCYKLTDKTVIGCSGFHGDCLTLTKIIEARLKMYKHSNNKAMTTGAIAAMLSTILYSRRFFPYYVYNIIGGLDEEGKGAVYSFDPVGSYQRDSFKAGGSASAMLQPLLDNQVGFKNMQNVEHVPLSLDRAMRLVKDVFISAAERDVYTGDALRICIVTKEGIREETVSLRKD
UniProt P28074: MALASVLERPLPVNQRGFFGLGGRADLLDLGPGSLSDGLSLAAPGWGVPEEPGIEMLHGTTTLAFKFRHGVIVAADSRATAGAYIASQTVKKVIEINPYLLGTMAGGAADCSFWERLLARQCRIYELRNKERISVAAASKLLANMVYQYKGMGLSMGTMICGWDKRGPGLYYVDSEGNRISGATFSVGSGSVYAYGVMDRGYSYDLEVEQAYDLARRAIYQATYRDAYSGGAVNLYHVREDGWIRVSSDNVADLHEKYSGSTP
UniProt Q99942: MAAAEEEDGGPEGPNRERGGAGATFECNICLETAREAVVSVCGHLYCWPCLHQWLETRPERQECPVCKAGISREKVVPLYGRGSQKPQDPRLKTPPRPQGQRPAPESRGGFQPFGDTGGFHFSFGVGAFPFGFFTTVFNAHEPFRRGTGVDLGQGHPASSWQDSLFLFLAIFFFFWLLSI

Among the data in PMC9897159 are binding values, retold here.

The assay has as its target SARS-CoV-2 envelope (E) protein with an HA tag (SARS-CoV-2) (UniProt P0DTC4). Briefly: affinity purification with mass spectrometry.

PSMA8 (from UniProt Q8TAA3 1-256): the binding entry is reported as “binds”. Next, PSMB1 (from UniProt P20618): “binds”; PSMB5 (from UniProt P28074): “binds”. For the substance “RNF5 (endogenous, HEK293T) (from UniProt Q99942 1-180) (enzyme)”, the binding entry is on record as “binds”.
